These are yes or no findings as the source states them, for the method shown. Binding can be weak; no strength is given.
Target: SlNINJA (tomato NOVEL INTERACTOR OF JAZ) (tomato (Solanum lycopersicum))
Test: two-hybrid; Matchmaker system, MaV203 yeast; SlNINJA with SlJAZs (prey, pGADT7); growth on medium without Leu, Trp and His with 10 mM 3-amino-1,2,4-triazole

binding: binds
B1: SlJAZ7 (protein, UniProt Q9M723 1-228)
chain: MDSRMEIDFMDLNSKPKLSEMEKQHKKVSGMKWPFSLADLATHHEHTFFQNYKSTPIVSINSKNSSLNNYKSTIDPQYFRGTFPLLAKTSTYDSRKNYDNLSPNESTLTIFYMGEVHIFPGISPEKAELIIDLVSKSTTLHMDEILEKVMNKEKYEENKSDPSNASTNYAKGALAMARRATLARFLEKRKHRLIKARPYLYGENLSKFPFDIQQQEEETASSSVHWEN

Source: paper PMC3785428
